Source: PMC8136785, “Short DNA/RNA heteroduplex oligonucleotide interacting proteins are key regulators of target gene silencing”

Molecular target: T1, carbonic anhydrase 8 (CA8) (UniProt P28651)
T1 sequence: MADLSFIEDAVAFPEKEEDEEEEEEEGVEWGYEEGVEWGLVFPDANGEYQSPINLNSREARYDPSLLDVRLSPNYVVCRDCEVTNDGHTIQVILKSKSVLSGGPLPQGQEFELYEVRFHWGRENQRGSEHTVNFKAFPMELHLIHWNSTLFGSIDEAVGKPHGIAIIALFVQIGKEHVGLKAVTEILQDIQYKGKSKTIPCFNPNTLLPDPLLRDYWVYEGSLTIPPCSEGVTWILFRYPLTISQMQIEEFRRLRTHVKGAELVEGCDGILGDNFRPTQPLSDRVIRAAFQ
Assay: affinity purification with mass spectrometry; immunoprecipitation with the CA8 antibody in nonionic detergent NP-40 buffer; precipitate resolved on SDS-PAGE, silver staining, specific bands analysed by mass spectrometry

tropomyosin 3 (TPM3)
binding: binds

These are yes or no findings as the source states them, for the method shown. Binding seen in cells or lysates may run through a third protein. Here binding means that the protein was enriched with, or labelled near, the bait; the list need not be complete.
